PubChem BioAssay AID1159584 | Peter MacCallum Cancer Centre – 2016
The deposit covers about 18,000 reagents; this is a part drawn at random. Not all columns of the deposit are shown. Not given: the amount of reagent, the time to read-out.

Assay: 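Knock-downs that harm CDH1-null cells more than parental MCF10A cells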 (primary screen)
Cell system: human MCF10A breast epithelial cells, parental and CDH1-null
Knock-down reagent: siRNA against human genes
Measurement: 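Cell viability by CellTiter-Glo ATP luminescence, each line scaled to the mean of mock wells across plates, then CDH1-null over parental ratio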
Direction: CDH1-null / parental viability ratio: higher = CDH1-null cells survive relatively better than parental; CDH1-null viability vs mock: higher = more viable CDH1-null cells
Units: CDH1-null viability vs mock in fraction of mock

ODAPH (odontogenesis associated phosphoprotein)
- CDH1-null / parental viability ratio: 0.82
- CDH1-null viability vs mock: 0.62

TMEM87B (transmembrane protein 87B)
- CDH1-null / parental viability ratio: 0.79
- CDH1-null viability vs mock: 0.74

TEF (TEF transcription factor, PAR bZIP family member)
- CDH1-null / parental viability ratio: 0.92
- CDH1-null viability vs mock: 0.87

LYPLA1 (lysophospholipase 1)
- CDH1-null / parental viability ratio: 1.03
- CDH1-null viability vs mock: 0.99

FRMD3 (FERM domain containing 3)
- CDH1-null / parental viability ratio: 0.87
- CDH1-null viability vs mock: 0.68

SWSAP1 (SWIM-type zinc finger 7 associated protein 1)
- CDH1-null / parental viability ratio: 0.95
- CDH1-null viability vs mock: 1.13

CMTR2 (cap methyltransferase 2)
- CDH1-null / parental viability ratio: 0.85
- CDH1-null viability vs mock: 0.88

SEC11C (SEC11 homolog C, signal peptidase complex subunit)
- CDH1-null / parental viability ratio: 0.9
- CDH1-null viability vs mock: 0.77

ALKAL2 (ALK and LTK ligand 2)
- CDH1-null / parental viability ratio: 0.94
- CDH1-null viability vs mock: 0.66

RNH1 (ribonuclease/angiogenin inhibitor 1)
- CDH1-null / parental viability ratio: 0.99
- CDH1-null viability vs mock: 0.98

PFAS (phosphoribosylformylglycinamidine synthase)
- CDH1-null / parental viability ratio: 0.88
- CDH1-null viability vs mock: 0.74

TP53AIP1 (tumor protein p53 regulated apoptosis inducing protein 1)
- CDH1-null / parental viability ratio: 0.65
- CDH1-null viability vs mock: 0.31

SMG6 (SMG6 nonsense mediated mRNA decay factor)
- CDH1-null / parental viability ratio: 1
- CDH1-null viability vs mock: 0.76

RICTOR (RPTOR independent companion of MTOR complex 2)
- CDH1-null / parental viability ratio: 1.01
- CDH1-null viability vs mock: 0.85

TCOF1 (treacle ribosome biogenesis factor 1)
- CDH1-null / parental viability ratio: 0.89
- CDH1-null viability vs mock: 0.85

NECAP1 (NECAP endocytosis associated 1)
- CDH1-null / parental viability ratio: 1.12
- CDH1-null viability vs mock: 0.99

MCCD1 (mitochondrial coiled-coil domain 1)
- CDH1-null / parental viability ratio: 1.15
- CDH1-null viability vs mock: 1

TRA2A (transformer 2 alpha homolog)
- CDH1-null / parental viability ratio: 1.22
- CDH1-null viability vs mock: 1.1

GNL2 (G protein nucleolar 2)
- CDH1-null / parental viability ratio: 0.84
- CDH1-null viability vs mock: 0.72

PLEKHG4 (pleckstrin homology and RhoGEF domain containing G4)
- CDH1-null / parental viability ratio: 1.52
- CDH1-null viability vs mock: 0.7

NEB (nebulin)
- CDH1-null / parental viability ratio: 1.08
- CDH1-null viability vs mock: 0.97

CAV2 (caveolin 2)
- CDH1-null / parental viability ratio: 1.58
- CDH1-null viability vs mock: 0.87

PEX5 (peroxisomal biogenesis factor 5)
- CDH1-null / parental viability ratio: 1.08
- CDH1-null viability vs mock: 1.08

TAF13 (TATA-box binding protein associated factor 13)
- CDH1-null / parental viability ratio: 1.29
- CDH1-null viability vs mock: 1.1

INSIG1 (insulin induced gene 1)
- CDH1-null / parental viability ratio: 1.01
- CDH1-null viability vs mock: 0.87

RAD17 (RAD17 checkpoint clamp loader component)
- CDH1-null / parental viability ratio: 1.15
- CDH1-null viability vs mock: 0.92

TGIF1 (TGFB induced factor homeobox 1)
- CDH1-null / parental viability ratio: 1.17
- CDH1-null viability vs mock: 0.98

EFNA4 (ephrin A4)
- CDH1-null / parental viability ratio: 0.92
- CDH1-null viability vs mock: 0.76

IL18BP (interleukin 18 binding protein)
- CDH1-null / parental viability ratio: 1.31
- CDH1-null viability vs mock: 0.38

PCM1 (pericentriolar material 1)
- CDH1-null / parental viability ratio: 0.91
- CDH1-null viability vs mock: 0.75

SNRPD1 (small nuclear ribonucleoprotein D1 polypeptide)
- CDH1-null / parental viability ratio: 2
- CDH1-null viability vs mock: 0.44

HTATIP2 (HIV-1 Tat interactive protein 2)
- CDH1-null / parental viability ratio: 0.98
- CDH1-null viability vs mock: 0.94

PAQR5 (progestin and adipoQ receptor family member 5)
- CDH1-null / parental viability ratio: 0.73
- CDH1-null viability vs mock: 0.45

COMMD5 (COMM domain containing 5)
- CDH1-null / parental viability ratio: 0.91
- CDH1-null viability vs mock: 0.64

RAB20 (RAB20, member RAS oncogene family)
- CDH1-null / parental viability ratio: 1.08
- CDH1-null viability vs mock: 1.17

Already shown: 3 of the entries above.
CAV2 (caveolin 2)
- CDH1-null / parental viability ratio: 1.58
- CDH1-null viability vs mock: 0.87

PEX5 (peroxisomal biogenesis factor 5)
- CDH1-null / parental viability ratio: 1.08
- CDH1-null viability vs mock: 1.08

TAF13 (TATA-box binding protein associated factor 13)
- CDH1-null / parental viability ratio: 1.29
- CDH1-null viability vs mock: 1.1
